# Measured values reported in US10420844B2 (Mederis Diabetes LLC, priority 2011, dated 2019).
# Experiment: general procedure: Fmoc solid-phase peptide synthesis; Rink amide resin; DIC/HOBt
# Conditions: whole synthesis, analytical hplc/mass spectrometry, scale of the general procedure 0.3 mmol
row,Substance,final LC-MS purity [%]
1,His-Aib-Gln-Gly-Thr-Phe-Thr-Ser-Asp-Bip-Ser-Lys-Tyr-Leu-Glu-Ser-Lys,98.03
2,[Ac5c]V[Aib]EIQL[Nle]HQRARWIQK,>97

# Non-standard residues stand in square brackets, D forms with d. No end group written: not given here. Nle = CCCC[C@H](N)C(=O)O; Ac5c = NC1(C(=O)O)CCCC1; Aib = CC(C)(N)C(=O)O
